# According to the supplement of paper PMC8728848:
# This is one part of the list.
# Experiments:
# Assay in all cases: glycan array binding signal (z-score within array); higher = stronger binding
# Details in all cases: glycan notation: IUPAC condensed, linker removed; mutation: D224N
# [1] = target: Neu5Ac(a2-3)Gal(b1-3)[Neu5Ac(a2-6)]GlcNAc(b1-3)[Fuc(a1-3)[Gal(b1-4)]GlcNAc(b1-6)]Gal(b1-4)Glc
# How it was run: (§1)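 Glycan array data were curated from 3228 arrays in the Consortium for Functional Glycomics database and kept only where the protein sequence was available. Glycan names were converted to IUPAC-condensed notation, and columns mapping to the same glycan were averaged. The binding signal is a within-array Z-score, averaged across arrays of the same protein sequence at different concentrations or buffers and across linkers. Negative Z-scores can be read as non-binding.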
# [2] = target: Neu5Ac(a2-3)Gal(b1-3)]Neu5Ac(a2-3)Gal(b1-4)]GlcNAc
# How it was run: as §1
# Neu5Ac(a2-3)Gal(b1-4)Glc = target: Neu5Ac(a2-3)Gal(b1-4)Glc
# How it was run: as §1
# [3] = target: Neu5Ac(a2-3)Gal(b1-4)GlcNAc
# How it was run: as §1
# [4] = target: Neu5Ac(a2-3)Gal(b1-4)GlcNAc(b1-2)Man
# How it was run: as §1
# [5] = target: Neu5Ac(a2-3)Gal(b1-4)GlcNAc(b1-2)Man(a1-3)[GlcNAc(b1-4)][Neu5Ac(a2-3)Gal(b1-4)GlcNAc(b1-2)Man(a1-6)]Man(b1-4)GlcNAc(b1-4)GlcNAc
# How it was run: as §1
# [6] = target: Neu5Ac(a2-3)Gal(b1-4)GlcNAc(b1-2)Man(a1-3)[Neu5Ac(a2-3)Gal(b1-4)GlcNAc(b1-2)Man(a1-6)]Man(b1-4)GlcNAc(b1-4)GlcNAc
# How it was run: as §1
# [7] = target: Neu5Ac(a2-3)Gal(b1-4)GlcNAc(b1-2)Man(a1-3)[Neu5Ac(a2-3)Gal(b1-4)GlcNAc(b1-2)Man(a1-6)]Man(b1-4)GlcNAc(b1-4)[Fuc(a1-6)]GlcNAc
# How it was run: as §1
# [8] = target: Neu5Ac(a2-3)Gal(b1-4)GlcNAc(b1-2)Man(a1-3)[Neu5Ac(a2-6)Gal(b1-4)GlcNAc(b1-2)Man(a1-6)]Man(b1-4)GlcNAc(b1-4)GlcNAc
# How it was run: as §1
# [9] = target: Neu5Ac(a2-3)Gal(b1-4)GlcNAc(b1-2)[Neu5Ac(a2-3)Gal(b1-4)GlcNAc(b1-4)]Man(a1-3)[GlcNAc(b1-4)][Neu5Ac(a2-3)Gal(b1-4)GlcNAc(b1-2)[Neu5Ac(a2-3)Gal(b1-4)GlcNAc(b1-6)]Man(a1-6)]Man(b1-4)GlcNAc(b1-4)GlcNAc
# How it was run: as §1
# [10] = target: Neu5Ac(a2-3)Gal(b1-4)GlcNAc(b1-2)[Neu5Ac(a2-3)Gal(b1-4)GlcNAc(b1-4)]Man(a1-3)[GlcNAc(b1-4)][Neu5Ac(a2-3)Gal(b1-4)GlcNAc(b1-4)Man(a1-6)]Man(b1-4)GlcNAc(b1-4)GlcNAc
# How it was run: as §1
# [11] = target: Neu5Ac(a2-3)Gal(b1-4)GlcNAc(b1-2)[Neu5Ac(a2-3)Gal(b1-4)GlcNAc(b1-6)]Man(a1-6)[Neu5Ac(a2-3)Gal(b1-4)GlcNAc(b1-2)Man(a1-3)][GlcNAc(b1-4)]Man(b1-4)GlcNAc(b1-4)GlcNAc
# How it was run: as §1
# [12] = target: Neu5Ac(a2-3)Gal(b1-4)GlcNAc(b1-3)Gal
# How it was run: as §1
# [13] = target: Neu5Ac(a2-3)Gal(b1-4)GlcNAc(b1-3)Gal(b1-3)GlcNAc
# How it was run: as §1
# [14] = target: Neu5Ac(a2-3)Gal(b1-4)GlcNAc(b1-3)Gal(b1-4)GlcNAc
# How it was run: as §1
# [15] = target: Neu5Ac(a2-3)Gal(b1-4)GlcNAc(b1-3)Gal(b1-4)GlcNAc(b1-2)Man(a1-3)[Neu5Ac(a2-3)Gal(b1-4)GlcNAc(b1-3)Gal(b1-4)GlcNAc(b1-2)Man(a1-6)]Man(b1-4)GlcNAc(b1-4)GlcNAc
# How it was run: as §1
# [16] = target: Neu5Ac(a2-3)Gal(b1-4)GlcNAc(b1-3)Gal(b1-4)GlcNAc(b1-3)Gal(b1-4)GlcNAc
# How it was run: as §1
# [17] = target: Neu5Ac(a2-3)Gal(b1-4)GlcNAc(b1-3)Gal(b1-4)GlcNAc(b1-3)Gal(b1-4)GlcNAc(b1-2)Man(a1-3)[Neu5Ac(a2-3)Gal(b1-4)GlcNAc(b1-3)Gal(b1-4)GlcNAc(b1-3)Gal(b1-4)GlcNAc(b1-2)Man(a1-6)]GalNAc
# How it was run: as §1
# [18] = target: Neu5Ac(a2-3)Gal(b1-4)GlcNAc(b1-3)Gal(b1-4)GlcNAc(b1-3)GalNAc
# How it was run: as §1
# [19] = target: Neu5Ac(a2-3)Gal(b1-4)GlcNAc(b1-3)Gal(b1-4)GlcNAc(b1-3)[Neu5Ac(a2-3)Gal(b1-4)GlcNAc(b1-3)Gal(b1-4)GlcNAc(b1-6)]GalNAc
# How it was run: as §1
# [20] = target: Neu5Ac(a2-3)Gal(b1-4)GlcNAc(b1-3)Gal(b1-4)GlcNAc(b1-6)[Gal(b1-3)]GalNAc
# How it was run: as §1
# [21] = target: Neu5Ac(a2-3)Gal(b1-4)GlcNAc(b1-3)Gal(b1-4)[Fuc(a1-3)]GlcNAc
# How it was run: as §1
# [22] = target: Neu5Ac(a2-3)Gal(b1-4)GlcNAc(b1-3)GalNAc
# How it was run: as §1
# [23] = target: Neu5Ac(a2-3)Gal(b1-4)GlcNAc(b1-3)[Neu5Ac(a2-3)Gal(b1-4)GlcNAc(b1-6)]GalNAc
# How it was run: as §1
# [24] = target: Neu5Ac(a2-3)Gal(b1-4)GlcNAc(b1-6)GalNAc
# How it was run: as §1
# [25] = target: Neu5Ac(a2-3)Gal(b1-4)GlcNAc(b1-6)[Gal(b1-3)]GalNAc
# How it was run: as §1
# [26] = target: Neu5Ac(a2-3)Gal(b1-4)GlcNAc(b1-6)[Neu5Ac(a2-3)Gal(b1-3)]GalNAc
# How it was run: as §1
# [27] = target: Neu5Ac(a2-3)Gal(b1-4)GlcNAc6S
# How it was run: as §1
# [28] = target: Neu5Ac(a2-3)Gal(b1-4)[Fuc(a1-3)]GlcNAc
# How it was run: as §1
# [29] = target: Neu5Ac(a2-3)Gal(b1-4)[Fuc(a1-3)]GlcNAc(b1-2)Man
# How it was run: as §1
# [30] = target: Neu5Ac(a2-3)Gal(b1-4)[Fuc(a1-3)]GlcNAc(b1-3)Gal
# How it was run: as §1
# [31] = target: Neu5Ac(a2-3)Gal(b1-4)[Fuc(a1-3)]GlcNAc(b1-3)Gal(b1-4)GlcNAc
# How it was run: as §1
# [32] = target: Neu5Ac(a2-3)Gal(b1-4)[Fuc(a1-3)]GlcNAc(b1-3)Gal(b1-4)[Fuc(a1-3)]GlcNAc(b1-3)Gal(b1-4)[Fuc(a1-3)]GlcNAc
# How it was run: as §1
# [33] = target: Neu5Ac(a2-3)Gal(b1-4)[Fuc(a1-3)]GlcNAc(b1-3)GalNAc
# How it was run: as §1
# [34] = target: Neu5Ac(a2-3)Gal(b1-4)[Fuc(a1-3)]GlcNAc(b1-6)[Gal(b1-3)]GalNAc
# How it was run: as §1
# [35] = target: Neu5Ac(a2-3)Gal(b1-4)[Fuc(a1-3)]GlcNAc(b1-6)[Neu5Ac(a2-3)Gal(b1-3)]GalNAc
# How it was run: as §1
# [36] = target: Neu5Ac(a2-3)Gal(b1-4)[Fuc(a1-3)]GlcNAc6S
# How it was run: as §1
# [37] = target: Neu5Ac(a2-3)Gal6S(b1-4)GlcNAc
# How it was run: as §1
binder,measurement,setting,value
a L Fucosidase (Thermotoga maritima) (protein) MASMKPRYKPDWESLREHTVPKWFDKAKFGIFIHWGIYSVPGWATPTGELGKVPMDAWFFQNPYAEWYENSLRIKESPTWEYHVKTYGENFEYEKFADLFTAEKWDPQEWADLFKKAGAKYVIPTTKHHDGFCLWGTKYTDFNSVKRGPKRDLVGDLAKAVREAGLRFGVYYSGGLDWRFTTEPIRYPEDLSYIRPNTYEYADYAYKQVMELVDLYLPDVLWNNMGWPEKGKEDLKYLFAYYYNKHPEGSVNDRWGVPHWDFKTAEYHVNYPGDLPGYKWEFTRGIGLSFGYNRNEGPEHMLSVEQLVYTLVDVVSKGGNLLLNVGPKGDGTIPDLQKERLLGLGEWLRKYGDAIYGTSVWERCCAKTEDGTEIRFTRKCNRIFVIFLGIPTGEKIVIEDLNLSAGTVRHFLTGERLSFKNVGKNLEITVPKKLLETDSITLVLEAVEE,glycan array binding signal (z-score),[1],0.704
same,glycan array binding signal (z-score),[2],0.97
same,glycan array binding signal (z-score),Neu5Ac(a2-3)Gal(b1-4)Glc,-0.039
same,glycan array binding signal (z-score),[3],0.378
same,glycan array binding signal (z-score),[4],1.55
same,glycan array binding signal (z-score),[5],-0.196
same,glycan array binding signal (z-score),[6],1.02
same,glycan array binding signal (z-score),[7],0.12
same,glycan array binding signal (z-score),[8],-0.138
same,glycan array binding signal (z-score),[9],-0.306
same,glycan array binding signal (z-score),[10],-0.713
same,glycan array binding signal (z-score),[11],0.078
same,glycan array binding signal (z-score),[12],-0.187
same,glycan array binding signal (z-score),[13],-0.197
same,glycan array binding signal (z-score),[14],-0.169
same,glycan array binding signal (z-score),[15],0.311
same,glycan array binding signal (z-score),[16],-0.59
same,glycan array binding signal (z-score),[17],0.417
same,glycan array binding signal (z-score),[18],0.729
same,glycan array binding signal (z-score),[19],0.676
same,glycan array binding signal (z-score),[20],0.668
same,glycan array binding signal (z-score),[21],1.75
same,glycan array binding signal (z-score),[22],1.48
same,glycan array binding signal (z-score),[23],0.483
same,glycan array binding signal (z-score),[24],-0.257
same,glycan array binding signal (z-score),[25],1.11
same,glycan array binding signal (z-score),[26],-0.328
same,glycan array binding signal (z-score),[27],0.062
same,glycan array binding signal (z-score),[28],-0.941
same,glycan array binding signal (z-score),[29],0.826
same,glycan array binding signal (z-score),[30],-0.228
same,glycan array binding signal (z-score),[31],1.9
same,glycan array binding signal (z-score),[32],-0.451
same,glycan array binding signal (z-score),[33],1.3
same,glycan array binding signal (z-score),[34],0.565
same,glycan array binding signal (z-score),[35],2.83
same,glycan array binding signal (z-score),[36],0.85
same,glycan array binding signal (z-score),[37],-0.146

# At a glance, part of the list above:
binder,measurement,setting,value
a L Fucosidase (Thermotoga maritima) (protein) MASMKPRYKPDWESLREHTVPKWFDKAKFGIFIHWGIYSVPGWATPTGELGKVPMDAWFFQNPYAEWYENSLRIKESPTWEYHVKTYGENFEYEKFADLFTAEKWDPQEWADLFKKAGAKYVIPTTKHHDGFCLWGTKYTDFNSVKRGPKRDLVGDLAKAVREAGLRFGVYYSGGLDWRFTTEPIRYPEDLSYIRPNTYEYADYAYKQVMELVDLYLPDVLWNNMGWPEKGKEDLKYLFAYYYNKHPEGSVNDRWGVPHWDFKTAEYHVNYPGDLPGYKWEFTRGIGLSFGYNRNEGPEHMLSVEQLVYTLVDVVSKGGNLLLNVGPKGDGTIPDLQKERLLGLGEWLRKYGDAIYGTSVWERCCAKTEDGTEIRFTRKCNRIFVIFLGIPTGEKIVIEDLNLSAGTVRHFLTGERLSFKNVGKNLEITVPKKLLETDSITLVLEAVEE,glycan array binding signal (z-score),[21],1.75
same,glycan array binding signal (z-score),[22],1.48
